Assay results: publication PMC4871701
No constants are given. Whether binding was seen depends on the method and setting. For some assays here: In cells and extracts the contact can be indirect. Some binding calls cover weakened binding; strength is not graded here. Sequences can lack the tags named with a protein.

Protein sequences, listed by entry. Tags and fused reporters are not part of them.
UniProt P49597: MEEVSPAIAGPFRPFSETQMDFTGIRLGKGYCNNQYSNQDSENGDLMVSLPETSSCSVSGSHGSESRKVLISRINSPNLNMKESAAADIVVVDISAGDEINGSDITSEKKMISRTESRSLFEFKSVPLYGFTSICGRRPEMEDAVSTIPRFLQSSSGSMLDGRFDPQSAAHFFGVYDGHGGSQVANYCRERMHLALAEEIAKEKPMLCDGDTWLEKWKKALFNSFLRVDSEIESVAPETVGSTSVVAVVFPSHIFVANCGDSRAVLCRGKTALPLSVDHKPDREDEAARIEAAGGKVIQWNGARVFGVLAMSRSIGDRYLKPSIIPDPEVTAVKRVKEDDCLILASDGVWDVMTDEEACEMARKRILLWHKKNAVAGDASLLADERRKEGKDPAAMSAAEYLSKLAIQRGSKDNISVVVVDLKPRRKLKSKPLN

T1: RopGEF1 (yeast two-hybrid bait fusion) (Arabidopsis thaliana) (UniProt Q93ZY2)
T1 sequence: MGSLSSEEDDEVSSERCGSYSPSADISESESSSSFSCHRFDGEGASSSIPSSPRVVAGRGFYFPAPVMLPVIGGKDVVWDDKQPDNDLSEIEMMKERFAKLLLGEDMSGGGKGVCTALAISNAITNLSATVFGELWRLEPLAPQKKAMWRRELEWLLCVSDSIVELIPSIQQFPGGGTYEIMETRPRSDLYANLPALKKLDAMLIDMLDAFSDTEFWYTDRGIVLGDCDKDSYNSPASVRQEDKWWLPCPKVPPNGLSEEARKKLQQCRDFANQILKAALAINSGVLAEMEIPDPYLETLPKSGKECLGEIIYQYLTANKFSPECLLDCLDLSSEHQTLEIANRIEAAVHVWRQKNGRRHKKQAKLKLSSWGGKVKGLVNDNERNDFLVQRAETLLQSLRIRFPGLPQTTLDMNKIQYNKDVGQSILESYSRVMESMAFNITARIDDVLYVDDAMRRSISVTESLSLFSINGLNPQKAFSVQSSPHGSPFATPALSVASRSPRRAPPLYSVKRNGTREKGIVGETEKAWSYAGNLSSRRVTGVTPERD

T2: Flag-GFP-GEF1 (Arabidopsis thaliana) (UniProt Q93ZY2)
T2 sequence: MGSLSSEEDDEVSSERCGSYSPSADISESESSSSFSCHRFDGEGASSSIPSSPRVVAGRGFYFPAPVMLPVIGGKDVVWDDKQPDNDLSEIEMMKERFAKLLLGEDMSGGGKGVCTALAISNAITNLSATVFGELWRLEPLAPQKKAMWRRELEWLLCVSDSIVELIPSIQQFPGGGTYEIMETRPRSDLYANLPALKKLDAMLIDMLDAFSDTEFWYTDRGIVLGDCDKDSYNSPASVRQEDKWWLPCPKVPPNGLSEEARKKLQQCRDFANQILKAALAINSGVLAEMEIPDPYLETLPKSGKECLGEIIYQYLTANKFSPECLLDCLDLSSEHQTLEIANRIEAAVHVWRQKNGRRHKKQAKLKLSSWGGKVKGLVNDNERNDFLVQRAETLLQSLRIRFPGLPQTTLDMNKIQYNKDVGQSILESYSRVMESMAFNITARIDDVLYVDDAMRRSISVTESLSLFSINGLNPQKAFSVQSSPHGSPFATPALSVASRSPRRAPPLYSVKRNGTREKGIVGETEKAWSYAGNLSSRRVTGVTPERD


What was measured:
[1] = molecular target: T1, RopGEF1 (yeast two-hybrid bait fusion) (Arabidopsis thaliana); test: two-hybrid; yeast pJ69-4A; growth on -L-W-H with 5 mM 3-AT for 6 d
[2] = molecular target: T2, Flag-GFP-GEF1 (Arabidopsis thaliana); test: co-IP; Flag-GFP-GEF1 and myc-mCherry-PP2C co-expressed in N. benthamiana leaves; lysate precipitated with anti-flag magnetic beads, 4 h at 4°C; blots with anti-flag and anti-myc
[3] = molecular target: ABI1 (yeast two-hybrid fusion) (Arabidopsis thaliana) (UniProt P49597); test: two-hybrid; yeast PJ69-4A, USER-modified pGBT9 and pGADGH; growth on SD-L-W-H with 3 mM 3-AT for 6 d; ABI1/PYL1 without ABA

| Binder | binding [1] | binding [2] | other results |
| --- | --- | --- | --- |
| HAI1 (yeast two-hybrid fusion) (enzyme, UniProt Q9FIF5 1-413) MAEICYENETMMIETTATVVKKATTTTRRRERSSSQAARRRRMEIRRFKFVSGEQEPVFVDGDLQRRRRRESTVAASTSTVFYETAKEVVVLCESLSSTVVALPDPEAYPKYGVASVCGRRREMEDAVAVHPFFSRHQTEYSSTGFHYCGVYDGHGCSHVAMKCRERLHELVREEFEADADWEKSMARSFTRMDMEVVALNADGAAKCRCELQRPDCDAVGSTAVVSVLTPEKIIVANCGDSRAVLCRNGKAIALSSDHKPDRPDELDRIQAAGGRVIYWDGPRVLGVLAMSRAIGDNYLKPYVISRPEVTVTDRANGDDFLILASDGLWDVVSNETACSVVRMCLRGKVNGQVSSSPEREMTGVGAGNVVVGGGDLPDKACEEASLLLTRLALARQSSDNVSVVVVDLRRDT | binds | – | – |
| AHG1 (yeast two-hybrid fusion) (enzyme, UniProt Q9FLI3 1-416) MTEIYRTISTGRGDDVSPTKCRERRRRRIEMRRQAAVFGEPSSSRNRDRTDMEVYSSFDVPLRKQARRSEIGGLPADIGGFLAPPAASSCQKSEAPVWKGEETEDEPLYGIVSVMGRSRKMEDSVTVKPNLCKPEVNRQRPVHFFAVYDGHGGSQVSTLCSTTMHTFVKEELEQNLEEEEEGSENDVVERKWRGVMKRSFKRMDEMATSTCVCGTSVPLCNCDPREAAISGSTAVTAVLTHDHIIVANTGDSRAVLCRNGMAIPLSNDHKPDRPDERARIEAAGGRVLVVDGARVEGILATSRAIGDRYLKPMVAWEPEVTFMRRESGDECLVLASDGLWDVLSSQLACDIARFCLREETPSSLDLNRMAQEDDNDGEQNPSRSVLAATLLTRLALGRQSSDNISVVVIDLKNSSQ | binds | – | – |
| myc-mCherry-HAI1 (enzyme, UniProt Q9FIF5 1-413) MAEICYENETMMIETTATVVKKATTTTRRRERSSSQAARRRRMEIRRFKFVSGEQEPVFVDGDLQRRRRRESTVAASTSTVFYETAKEVVVLCESLSSTVVALPDPEAYPKYGVASVCGRRREMEDAVAVHPFFSRHQTEYSSTGFHYCGVYDGHGCSHVAMKCRERLHELVREEFEADADWEKSMARSFTRMDMEVVALNADGAAKCRCELQRPDCDAVGSTAVVSVLTPEKIIVANCGDSRAVLCRNGKAIALSSDHKPDRPDELDRIQAAGGRVIYWDGPRVLGVLAMSRAIGDNYLKPYVISRPEVTVTDRANGDDFLILASDGLWDVVSNETACSVVRMCLRGKVNGQVSSSPEREMTGVGAGNVVVGGGDLPDKACEEASLLLTRLALARQSSDNVSVVVVDLRRDT | – | binds | – |
| myc-mCherry-AHG1 (enzyme, UniProt Q9FLI3 1-416) MTEIYRTISTGRGDDVSPTKCRERRRRRIEMRRQAAVFGEPSSSRNRDRTDMEVYSSFDVPLRKQARRSEIGGLPADIGGFLAPPAASSCQKSEAPVWKGEETEDEPLYGIVSVMGRSRKMEDSVTVKPNLCKPEVNRQRPVHFFAVYDGHGGSQVSTLCSTTMHTFVKEELEQNLEEEEEGSENDVVERKWRGVMKRSFKRMDEMATSTCVCGTSVPLCNCDPREAAISGSTAVTAVLTHDHIIVANTGDSRAVLCRNGMAIPLSNDHKPDRPDERARIEAAGGRVLVVDGARVEGILATSRAIGDRYLKPMVAWEPEVTFMRRESGDECLVLASDGLWDVLSSQLACDIARFCLREETPSSLDLNRMAQEDDNDGEQNPSRSVLAATLLTRLALGRQSSDNISVVVIDLKNSSQ | – | binds | – |
| RCAR1/PYL9 (yeast two-hybrid fusion) (receptor, UniProt Q84MC7 1-187) MMDGVEGGTAMYGGLETVQYVRTHHQHLCRENQCTSALVKHIKAPLHLVWSLVRRFDQPQKYKPFVSRCTVIGDPEIGSLREVNVKSGLPATTSTERLELLDDEEHILGIKIIGGDHRLKNYSSILTVHPEIIEGRAGTMVIESFVVDVPQGNTKDETCYFVEALIRCNLKSLADVSERLASQDITQ | – | – | binding [3]: binds |
